Literature values, collected in patent US6953810B2, “Nicotinamide biaryl derivatives useful as inhibitors of PDE4 isozymes” (Pfizer Inc, priority 2001, dated 2005).
At least one structure is not confirmed: it was looked up by name or label, or the drawing left a doubt.

Test system: human peripheral blood mononuclear cells (HPBM)
Conditions: normal patients and subjects with atopic dermatitis; cited from earlier work

## CCCCOc1cc(CC2CNC(=O)N2)ccc1OC (stereo not shown) [Ro-201724]
  inhibition of proliferation of HPBM: concentration-related inhibition
